Experimental findings from article PMC4474691, “Leukemia-Associated Mutations in Nucleophosmin Alter Recognition by CRM1: Molecular Basis of Aberrant Transport” (PLoS ONE, 2015) are described below.

Amino acid sequences for entries named in this document (tags omitted).
UniProt Q6P5F9: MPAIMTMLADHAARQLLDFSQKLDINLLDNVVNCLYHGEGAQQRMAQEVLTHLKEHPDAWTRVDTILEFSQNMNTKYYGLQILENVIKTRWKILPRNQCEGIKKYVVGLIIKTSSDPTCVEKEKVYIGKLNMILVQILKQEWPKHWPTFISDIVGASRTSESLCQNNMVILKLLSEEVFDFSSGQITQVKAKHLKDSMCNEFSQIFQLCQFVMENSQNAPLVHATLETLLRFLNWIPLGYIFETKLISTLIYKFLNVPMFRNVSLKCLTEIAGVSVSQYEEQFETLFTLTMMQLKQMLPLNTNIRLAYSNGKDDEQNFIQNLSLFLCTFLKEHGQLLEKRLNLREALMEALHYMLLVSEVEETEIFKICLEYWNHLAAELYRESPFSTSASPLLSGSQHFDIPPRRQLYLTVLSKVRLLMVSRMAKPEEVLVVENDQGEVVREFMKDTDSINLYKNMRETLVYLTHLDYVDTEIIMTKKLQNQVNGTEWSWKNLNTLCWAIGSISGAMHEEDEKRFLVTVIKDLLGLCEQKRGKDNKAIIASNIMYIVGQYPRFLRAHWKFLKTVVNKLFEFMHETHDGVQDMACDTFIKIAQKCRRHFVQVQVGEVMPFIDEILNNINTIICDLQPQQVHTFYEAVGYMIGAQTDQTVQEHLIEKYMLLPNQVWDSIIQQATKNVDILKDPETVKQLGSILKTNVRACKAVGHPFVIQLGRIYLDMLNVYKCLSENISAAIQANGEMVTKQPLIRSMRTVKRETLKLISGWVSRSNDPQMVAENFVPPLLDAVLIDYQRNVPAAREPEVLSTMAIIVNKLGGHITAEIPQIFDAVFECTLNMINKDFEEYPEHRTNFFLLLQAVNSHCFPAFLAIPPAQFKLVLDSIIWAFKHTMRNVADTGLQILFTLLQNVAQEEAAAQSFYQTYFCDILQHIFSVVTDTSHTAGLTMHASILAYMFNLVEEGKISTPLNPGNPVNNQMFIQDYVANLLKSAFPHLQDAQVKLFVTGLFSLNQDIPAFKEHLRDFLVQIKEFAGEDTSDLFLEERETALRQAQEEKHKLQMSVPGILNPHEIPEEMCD

The target of the experiment is T1, TFP-PKI(NES).
T1 sequence: ISGGGGLALKLAGLDI
As to the kind of experiment: fluorescence polarisation; fluorescence anisotropy of TFP/YFP-NES construct (50 nM) titrated with 0–60 μM CRM1; 25°C; 20 mM Tris/HCl pH 7.4, 50 mM NaCl, 5 mM DTT, 2 mM MgCl2; apparent KD (C50); both purified. Background: In fluorescence polarisation assays a small probe gives low polarisation when free and higher when bound to something large.

These are yes or no findings as the source states them, for the method shown. Some binding calls cover weakened binding; strength is not graded here.

For “wild type CRM1 (mouse) (from UniProt Q6P5F9 1-1071) (receptor)”, the binding entry was “binds weakly”.
